# Percent effect of library compounds

Measurements from “University of Dundee, Small-Polar-MMV Screening Library” (2021), ChEMBL document CHEMBL3988442.

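Whole-cell growth test on Mycobacterium tuberculosis, read after 4 days in a medium based on cholesterol and the lipid DPPC; the read-out is not stated. Tested at 50 µM. Direction is inferred from retests: higher values go with more growth inhibition. Of about 69,000 compounds tested this way, about 370 (0.54%) reached 50% or more in at least one test.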

Values are the deposited “Percent Effect”, in %.
How 0% and 100% were set is not recorded. Most values in the screen are low, and negative values occur.
The compounds are a random part of those screened.
Two or more numbers in one place are separate tests of the same structure; such repeats can differ widely.

structure	effect
Cn1c(CC2CCS(=O)(=O)C2)nnc1SCCOc1ccccc1F (stereo not given)	-0.3755
COc1cc(F)c(C(=O)N2C[C@@H](CN(C)CCO)[C@@H](CO)C2)c(F)c1	0.03124 & -5.512
COc1ccc(OCCC(=O)N2CCCC2Cn2cccn2)cc1 (stereo not given)	4.741
CCn1cc2c(n1)CN(S(=O)(=O)c1ccc(C)cc1)CC2COC (stereo not given)	1.313
Cc1nc(C)c(COc2ccc(N(C)S(C)(=O)=O)cc2)s1	33.04
Cc1nc(CN2C(=O)CCC23CCN(c2ncccn2)CC3)cs1.O=C(O)C(F)(F)F	10.26
Cc1nc(CN2C(=O)COC3(CCN(CC4CC4)CC3)C2C)cs1.O=C(O)C(F)(F)F (stereo not given)	8.447
CCOCCCNC(=O)c1ccccc1S(C)(=O)=O	-0.7201
O=C1NCCN1C1CCN(CCOc2cccc3ccccc23)CC1	20.81
CCCc1nc(CNc2nc(C)nc3oc(C)nc23)cs1	-13.69
CN(C)C(=O)c1cccc(C[S+]([O-])CC(=O)NC2CCCC2)c1 (stereo not given)	1.792
COc1cccc(CNC(=O)c2cccnc2SC(C)C)c1	-10.32
Cc1ncc2c(n1)CN(Cc1nc3ccccc3o1)CC2	3.416
CS(=O)(=O)CCn1ccc(NC(=O)CCc2cccc(F)c2)n1	-1.711
O=C1CCC(C(=O)N(Cc2ccsc2)CC2CCCO2)=NN1 (stereo not given)	17.41
CC1(C)Cc2ccccc2-c2nc(NCCCO)[nH]c(=O)c21	-8.347
CN(C)c1ccc(C(=O)NCc2csc(Br)c2)cn1	-11.77
O=C(NC1CC1)c1ccc(SCc2cscn2)cc1	-15.47
CCc1ccc(OCC(=O)N2CCN(CC)CC2)cc1	22
Cc1cc(C)n(CC2CCCCN2CCCS(=O)(=O)N(C)C)n1 (stereo not given)	-13.09 & 2.192
Cc1cc(N2CCSCC2)ccc1NC(=O)N(CCO)C1CC1	4.288
Cc1cc(-c2cnc(NC3CCCC3)nc2-c2ccoc2C)on1	10.08
[H][C@@]12C[C@H](C(=O)Nc3cccnc3)CN(Cc3ccc(C)o3)[C@]1([H])CCO2	-12.59
Cc1nccn1-c1ccc(CNS(=O)(=O)N2CCCCC2C)cn1 (stereo not given)	-16.63
CC(C(=O)NCCCN1CCOCC1)n1cncn1 (stereo not given)	-13.03
CCOc1ccccc1-c1cc(N)[nH]n1.Cl	3.151 & -11.97
O=C(O)C(F)(F)F.O=C(O)C(F)(F)F.[H][C@@]12CCCO[C@]1([H])[C@@H](OCc1ccncc1)CN2Cc1c(C)noc1C	-12.24
O=C(O)C(F)(F)F.O=C(O)C(F)(F)F.O=C(O)C(F)(F)F.c1ccc(CN2Cc3[nH]nc(COc4cccnc4)c3C2)nc1	-10.61
CCCN(CC(F)(F)F)C(=O)c1cc(F)cc2[nH]cnc12	-12.18
CC(C)N(C)CCNC(=O)N(C)CC1CCOCC1	0.1363
[H][C@]12CCC[C@@]1(COCC1CCOCC1)CN(C(=O)c1ccc(C)o1)C2	-11.77
Cc1cnc(CNS(=O)(=O)CCC2CCCO2)o1 (stereo not given)	7.072
CCN1CC(C(=O)N2CC(Oc3ccccc3Cl)C2)CCC1=O (stereo not given)	9.464 & 12.72
CC(C)COCCCNC(=O)NC(C)c1ccc(-n2cncn2)cc1 (stereo not given)	14.57
COc1cc(F)ccc1C(C(=O)O)N1CCN(C2CCCCC2)CC1 (stereo not given)	-5.074
Cc1nc(C2CCNCC2)cc(N(C)Cc2cc3cc(F)ccc3[nH]2)n1	24.9
O=C(NCc1cc[nH]n1)NCC(c1ccccc1Cl)N1CCCC1 (stereo not given)	-5.387
O=C(C1CCCC1)N1CC(c2nc(Cc3ccccc3)no2)C1	10.51
Cc1cccnc1[C@H](C)Nc1nc(-c2cccnc2)nc2c1CNC2	6.435
Fc1ccc(Oc2ccc(CNCC3CNc4ccnn4C3)cn2)cc1 (stereo not given)	-5.97
CCCc1nc2c(c(C)c(C)n2Cc2ccccn2)c(N)c1CC	12.49
COc1ccc2c(c1)OCC(Cc1cnc(N)c(C)c1)C2 (stereo not given)	0.8388
CCn1cc(S(=O)(=O)N(C)Cc2c(Br)cnn2CC)c(C)n1	-17.21
N#Cc1cccc(S(=O)(=O)NC(=O)COCC(F)(F)F)c1	9.184
Cc1ccc2c(c1)C(NC(C)C)CC21CCNCC1.Cl (stereo not given)	8.464
Cc1cc(C)n(CC2CCCN2C(=O)c2ccc3c(c2)nnn3C)n1 (stereo not given)	11.29
Cc1nc(CN2CCC(N(C)Cc3nnc(C4CC4)n3C)C2)cs1 (stereo not given)	-6.033
O=C(NC1CC1)c1ccn(COc2c(Cl)cccc2Cl)n1	-1.051

Repeated from the top, 3 entries:

{"structure": "Cn1c(CC2CCS(=O)(=O)C2)nnc1SCCOc1ccccc1F", "stereo": "stereo not given", "effect": -0.3755}
{"structure": "COc1cc(F)c(C(=O)N2C[C@@H](CN(C)CCO)[C@@H](CO)C2)c(F)c1", "effect": "0.03124 & -5.512"}
{"structure": "COc1ccc(OCCC(=O)N2CCCC2Cn2cccn2)cc1", "stereo": "stereo not given", "effect": 4.741}